Our source for the binding values is PMC10076289.

By UniProt entry, the sequences of proteins in these tests, tags left out.
UniProt Q2MJT0: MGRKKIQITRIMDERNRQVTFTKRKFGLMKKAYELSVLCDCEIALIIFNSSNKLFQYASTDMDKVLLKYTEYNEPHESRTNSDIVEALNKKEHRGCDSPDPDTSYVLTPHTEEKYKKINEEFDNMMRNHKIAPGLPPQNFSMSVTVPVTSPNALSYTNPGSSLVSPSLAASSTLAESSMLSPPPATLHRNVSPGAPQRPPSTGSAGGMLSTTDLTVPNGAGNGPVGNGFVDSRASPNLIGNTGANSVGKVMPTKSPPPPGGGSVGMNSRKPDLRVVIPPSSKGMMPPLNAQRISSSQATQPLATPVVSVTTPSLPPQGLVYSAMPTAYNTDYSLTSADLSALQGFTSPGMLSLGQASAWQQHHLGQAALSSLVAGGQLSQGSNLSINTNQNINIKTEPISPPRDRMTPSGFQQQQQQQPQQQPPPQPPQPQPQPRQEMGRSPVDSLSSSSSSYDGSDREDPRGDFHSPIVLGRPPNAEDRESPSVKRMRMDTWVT
UniProt Q02078: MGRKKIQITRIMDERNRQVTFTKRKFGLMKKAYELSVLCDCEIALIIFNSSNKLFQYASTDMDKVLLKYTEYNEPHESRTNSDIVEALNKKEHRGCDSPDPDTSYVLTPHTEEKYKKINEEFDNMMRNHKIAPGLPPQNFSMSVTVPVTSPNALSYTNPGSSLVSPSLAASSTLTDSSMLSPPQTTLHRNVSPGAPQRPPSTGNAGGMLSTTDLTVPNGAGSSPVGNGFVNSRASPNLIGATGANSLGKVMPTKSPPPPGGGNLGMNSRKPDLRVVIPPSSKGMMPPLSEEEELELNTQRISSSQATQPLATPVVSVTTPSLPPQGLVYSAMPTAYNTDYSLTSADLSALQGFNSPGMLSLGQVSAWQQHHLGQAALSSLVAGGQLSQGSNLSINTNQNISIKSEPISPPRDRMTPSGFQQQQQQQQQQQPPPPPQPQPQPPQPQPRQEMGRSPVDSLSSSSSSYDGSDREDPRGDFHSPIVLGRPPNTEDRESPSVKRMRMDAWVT
UniProt O15379: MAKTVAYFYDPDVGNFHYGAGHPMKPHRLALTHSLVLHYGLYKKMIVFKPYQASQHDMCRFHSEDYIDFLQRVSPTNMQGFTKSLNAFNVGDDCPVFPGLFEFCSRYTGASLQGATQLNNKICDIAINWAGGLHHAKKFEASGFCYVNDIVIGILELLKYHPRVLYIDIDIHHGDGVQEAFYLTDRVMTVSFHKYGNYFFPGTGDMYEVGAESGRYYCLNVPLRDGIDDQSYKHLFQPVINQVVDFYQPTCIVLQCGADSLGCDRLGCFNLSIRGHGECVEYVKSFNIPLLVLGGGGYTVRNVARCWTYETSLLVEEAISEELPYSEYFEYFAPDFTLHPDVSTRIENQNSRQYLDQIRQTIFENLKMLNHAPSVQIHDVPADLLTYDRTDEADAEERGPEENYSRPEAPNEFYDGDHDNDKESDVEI
UniProt P52631: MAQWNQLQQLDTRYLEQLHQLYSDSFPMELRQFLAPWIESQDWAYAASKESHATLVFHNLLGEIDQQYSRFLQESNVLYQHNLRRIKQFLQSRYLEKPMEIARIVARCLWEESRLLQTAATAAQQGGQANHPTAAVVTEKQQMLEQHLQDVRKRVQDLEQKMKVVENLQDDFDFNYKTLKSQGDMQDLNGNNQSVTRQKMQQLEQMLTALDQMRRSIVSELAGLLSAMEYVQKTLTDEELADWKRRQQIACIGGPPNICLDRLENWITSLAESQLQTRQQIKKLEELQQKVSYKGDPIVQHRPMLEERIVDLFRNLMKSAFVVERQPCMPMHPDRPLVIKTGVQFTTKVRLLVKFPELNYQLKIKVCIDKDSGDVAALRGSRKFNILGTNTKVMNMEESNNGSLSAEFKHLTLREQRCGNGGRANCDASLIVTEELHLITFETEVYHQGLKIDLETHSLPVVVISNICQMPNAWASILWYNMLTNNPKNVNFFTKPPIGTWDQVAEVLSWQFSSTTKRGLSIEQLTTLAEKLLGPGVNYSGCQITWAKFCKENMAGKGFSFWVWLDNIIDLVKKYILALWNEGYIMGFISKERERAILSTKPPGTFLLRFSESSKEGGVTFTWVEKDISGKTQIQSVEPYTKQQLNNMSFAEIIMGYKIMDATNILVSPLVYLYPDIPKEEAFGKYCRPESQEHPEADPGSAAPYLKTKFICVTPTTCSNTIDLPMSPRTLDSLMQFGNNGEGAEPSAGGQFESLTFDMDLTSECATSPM

No constants are given. Whether binding was seen depends on the method and setting. In cells and extracts the contact can be indirect. Some results given as binding are weak or reduced against the parent protein; the word gives no strength.

Test [1] concerns the target endogenous MEF2A (rat (endogenous in primary neonatal rat cardiomyocytes)) (UniProt Q2MJT0). Briefly: co-IP; endogenous proteins from non-transfected primary rat cardiomyocyte lysates, IP with MEF2A antibody or STAT3 antibody, IgG as control, Western blot.
In a further test the target is 3xFlag-MEF2A (UniProt Q02078). Briefly: co-IP; lysates (NP-40 lysis buffer) of primary rat cardiomyocytes transfected with the Flag-tagged bait, anti-Flag M2 magnetic beads, Western blot of eluates; non-transfected lysates as control; for Flag-MEF2A also after isoproterenol (24 h), HDAC3 inhibitor RGFP966 or STAT3 inhibitor C188-9.
A further test deals with Flag-HDAC3 (UniProt O15379). The test is described as above.
Test [2] concerns the target STAT3 (rat (endogenous in primary neonatal rat cardiomyocytes)) (UniProt P52631). The test is described as follows: co-IP; endogenous proteins from non-transfected primary rat cardiomyocyte lysates, IP with MEF2A antibody or STAT3 antibody, IgG as control, Western blot. (In general: In western blotting, separated proteins are transferred to a membrane and probed.)

As to RBPMS (from UniProt A0A8I6G705 1-197), the binding entry in test [1] is listed as “binds”. As to STAT3 (from UniProt P52631 1-770), the binding result with 3xFlag-MEF2A and with Flag-HDAC3 was “binds” in each case. As to “endogenous MEF2A (from UniProt Q2MJT0 1-495)”, the binding result in test [2] is recorded as “binds”.
